These are yes or no findings as the source states them, for the method shown. Some binding calls cover weakened binding; strength is not graded here.
Target: 重组4-1BB-huIgG1 Fc融合蛋白 (human) (UniProt Q07011)
Assay: ELISA, coated 4-1BB-huIgG1 Fc 100 ng/well, biotinylated ligand from 50 ng/well, HRP-streptavidin

Amino acid sequences for entries named in this document (tags omitted). Residues count along the entry.
UniProt Q07011, residues 24-186: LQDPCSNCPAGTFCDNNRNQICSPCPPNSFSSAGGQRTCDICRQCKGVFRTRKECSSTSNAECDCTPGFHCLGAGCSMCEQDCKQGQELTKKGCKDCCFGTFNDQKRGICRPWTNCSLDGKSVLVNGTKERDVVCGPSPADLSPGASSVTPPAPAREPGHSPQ
UniProt P41273, residues 71-254: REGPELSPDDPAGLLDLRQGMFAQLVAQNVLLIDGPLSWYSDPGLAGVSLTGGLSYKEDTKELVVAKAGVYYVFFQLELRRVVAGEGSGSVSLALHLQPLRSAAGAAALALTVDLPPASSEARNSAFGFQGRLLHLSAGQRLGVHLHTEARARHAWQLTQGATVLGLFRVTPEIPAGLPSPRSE

binding: binds
Substance: Biotinylated Human 4-1BB Ligand (from UniProt P41273 71-254)

From CN115850477A
